From paper PMC10888420
Results are given in words; binding and its absence hold for the method and conditions named. In cells and extracts the contact can be indirect. A result given as binding can be weak or reduced; the word gives no strength. Sequences can lack the tags named with a protein.

Target: PwNAC31-cYFP fusion protein (Picea wilsonii)
Assay: split reporter; BiFC: PwNAC31-cYFP (pSPYCE) with nYFP fusions (pSPYNE) transiently co-expressed in transgenic tobacco leaves with NLS-mCherry; confocal microscopy after 3 days; signal in the nuclei

B1: ABF3 fused to nYFP (protein, UniProt Q9M7Q3 1-454)
chain: MGSRLNFKSFVDGVSEQQPTVGTSLPLTRQNSVFSLTFDEFQNSWGGGIGKDFGSMNMDELLKNIWTAEESHSMMGNNTSYTNISNGNSGNTVINGGGNNIGGLAVGVGGESGGFFTGGSLQRQGSLTLPRTISQKRVDDVWKELMKEDDIGNGVVNGGTSGIPQRQQTLGEMTLEEFLVRAGVVREEPQPVESVTNFNGGFYGFGSNGGLGTASNGFVANQPQDLSGNGVAVRQDLLTAQTQPLQMQQPQMVQQPQMVQQPQQLIQTQERPFPKQTTIAFSNTVDVVNRSQPATQCQEVKPSILGIHNHPMNNNLLQAVDFKTGVTVAAVSPGSQMSPDLTPKSALDASLSPVPYMFGRVRKTGAVLEKVIERRQKRMIKNRESAARSRARKQAYTMELEAEIAQLKELNEELQKKQVEIMEKQKNQLLEPLRQPWGMGCKRQCLRRTLTGPW
B1 was tested, and the binding was “binds”.
